Assay results published in the supplement of paper PMC7661543.
Differences between knockout arms are mostly noise.

Test system: HCC-38
Experiment: relative cell number vs DMSO control (72 h) (% of DMSO); higher = less growth inhibition (more cells)
Experimental: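 QMAP-Seq: a pool of 5 breast cancer cell lines (ZR-75-1, SKBR3, HCC-38, MDA-MB-231, BT-20), each carrying 12 doxycycline-inducible Cas9 sgRNA perturbations (11 knockouts plus non-targeting sgNT), was treated with compounds for 72 h at four 10-fold doses (10 nM-10 uM or 1 nM-1 uM range). Barcodes were amplified and sequenced, and cell number was interpolated from 293T spike-in standard curves. The result is expressed as % of the median of DMSO wells. Two biological replicates.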

C=C(c1ccc(C(=O)O)cc1)c1cc2c(cc1C)C(C)(C)CCC2(C)C [Bexarotene]
Settings	relative cell number
sgRNA knockout: sgATF3, 10 nM	92
sgRNA knockout: sgATF3, 100 nM	91.7
sgRNA knockout: sgATF3, 1000 nM	100
sgRNA knockout: sgATF3, 10000 nM	109
sgRNA knockout: sgATF4, 10 nM	86.1
sgRNA knockout: sgATF4, 100 nM	92.6
sgRNA knockout: sgATF4, 1000 nM	104
sgRNA knockout: sgATF4, 10000 nM	107
sgRNA knockout: sgATF6, 10 nM	90.8
sgRNA knockout: sgATF6, 100 nM	87.1
sgRNA knockout: sgATF6, 1000 nM	107
sgRNA knockout: sgATF6, 10000 nM	118
sgRNA knockout: sgATG7, 10 nM	85.5
sgRNA knockout: sgATG7, 100 nM	100
sgRNA knockout: sgATG7, 1000 nM	104
sgRNA knockout: sgATG7, 10000 nM	100
sgRNA knockout: sgERN1, 10 nM	92.1
sgRNA knockout: sgERN1, 100 nM	89.6
sgRNA knockout: sgERN1, 1000 nM	99.6
sgRNA knockout: sgERN1, 10000 nM	98.7
sgRNA knockout: sgHSF1, 10 nM	94.9
sgRNA knockout: sgHSF1, 100 nM	81.3
sgRNA knockout: sgHSF1, 1000 nM	116.33
sgRNA knockout: sgHSF1, 10000 nM	106
sgRNA knockout: sgHSF2, 10 nM	97.9
sgRNA knockout: sgHSF2, 100 nM	88
sgRNA knockout: sgHSF2, 1000 nM	114
sgRNA knockout: sgHSF2, 10000 nM	108
sgRNA knockout: sgKEAP1, 10 nM	113
sgRNA knockout: sgKEAP1, 100 nM	106
sgRNA knockout: sgKEAP1, 1000 nM	124
sgRNA knockout: sgKEAP1, 10000 nM	95.1
sgRNA knockout: sgNFE2L2, 10 nM	82.3
sgRNA knockout: sgNFE2L2, 100 nM	91
sgRNA knockout: sgNFE2L2, 1000 nM	99.4
sgRNA knockout: sgNFE2L2, 10000 nM	114
sgRNA knockout: sgSLC35F2, 10 nM	82.2
sgRNA knockout: sgSLC35F2, 100 nM	94.6
sgRNA knockout: sgSLC35F2, 1000 nM	106
sgRNA knockout: sgSLC35F2, 10000 nM	106
sgRNA knockout: sgXBP1, 10 nM	82.3
sgRNA knockout: sgXBP1, 100 nM	100
sgRNA knockout: sgXBP1, 1000 nM	102
sgRNA knockout: sgXBP1, 10000 nM	101

Cc1cc2c(F)c(Oc3ncnn4cc(OC[C@@H](C)O)c(C)c34)ccc2[nH]1 [Brivanib]
Settings	relative cell number
sgRNA knockout: sgATF3, 10 nM	102
sgRNA knockout: sgATF3, 100 nM	83.9
sgRNA knockout: sgATF3, 1000 nM	94.1
sgRNA knockout: sgATF3, 10000 nM	82.3
sgRNA knockout: sgATF4, 10 nM	96.8
sgRNA knockout: sgATF4, 100 nM	94.2
sgRNA knockout: sgATF4, 1000 nM	92.5
sgRNA knockout: sgATF4, 10000 nM	77.6
sgRNA knockout: sgATF6, 10 nM	101
sgRNA knockout: sgATF6, 100 nM	91.3
sgRNA knockout: sgATF6, 1000 nM	101
sgRNA knockout: sgATF6, 10000 nM	78.8
sgRNA knockout: sgATG7, 10 nM	91.9
sgRNA knockout: sgATG7, 100 nM	92.1
sgRNA knockout: sgATG7, 1000 nM	99.2
sgRNA knockout: sgATG7, 10000 nM	80.4
sgRNA knockout: sgERN1, 10 nM	92.1
sgRNA knockout: sgERN1, 100 nM	81.4
sgRNA knockout: sgERN1, 1000 nM	92.7
sgRNA knockout: sgERN1, 10000 nM	78.3
sgRNA knockout: sgHSF1, 10 nM	97.7
sgRNA knockout: sgHSF1, 100 nM	94.3
sgRNA knockout: sgHSF1, 1000 nM	105
sgRNA knockout: sgHSF1, 10000 nM	73
sgRNA knockout: sgHSF2, 10 nM	103
sgRNA knockout: sgHSF2, 100 nM	96
sgRNA knockout: sgHSF2, 1000 nM	90.8
sgRNA knockout: sgHSF2, 10000 nM	80.1
sgRNA knockout: sgKEAP1, 10 nM	105
sgRNA knockout: sgKEAP1, 100 nM	96
sgRNA knockout: sgKEAP1, 1000 nM	93.6
sgRNA knockout: sgKEAP1, 10000 nM	83
sgRNA knockout: sgNFE2L2, 10 nM	95.4
sgRNA knockout: sgNFE2L2, 100 nM	95.8
sgRNA knockout: sgNFE2L2, 1000 nM	98.8
sgRNA knockout: sgNFE2L2, 10000 nM	77.7
sgRNA knockout: sgSLC35F2, 10 nM	96.8
sgRNA knockout: sgSLC35F2, 100 nM	84.7
sgRNA knockout: sgSLC35F2, 1000 nM	88.7
sgRNA knockout: sgSLC35F2, 10000 nM	76.6
sgRNA knockout: sgXBP1, 10 nM	96.1
sgRNA knockout: sgXBP1, 100 nM	86.9
sgRNA knockout: sgXBP1, 1000 nM	88.8
sgRNA knockout: sgXBP1, 10000 nM	83.5
